Experiment [1] deals with Flag-epitope tagged ORF59 (BAC16-ORF59Flag) (KSHV (human herpesvirus 8)) (UniProt F5HID2). Briefly: affinity purification with mass spectrometry.
In experiment [2] the target is T1, GFP fused ORF59 (KSHV (human herpesvirus 8)) (UniProt F5HID2).
T1 sequence: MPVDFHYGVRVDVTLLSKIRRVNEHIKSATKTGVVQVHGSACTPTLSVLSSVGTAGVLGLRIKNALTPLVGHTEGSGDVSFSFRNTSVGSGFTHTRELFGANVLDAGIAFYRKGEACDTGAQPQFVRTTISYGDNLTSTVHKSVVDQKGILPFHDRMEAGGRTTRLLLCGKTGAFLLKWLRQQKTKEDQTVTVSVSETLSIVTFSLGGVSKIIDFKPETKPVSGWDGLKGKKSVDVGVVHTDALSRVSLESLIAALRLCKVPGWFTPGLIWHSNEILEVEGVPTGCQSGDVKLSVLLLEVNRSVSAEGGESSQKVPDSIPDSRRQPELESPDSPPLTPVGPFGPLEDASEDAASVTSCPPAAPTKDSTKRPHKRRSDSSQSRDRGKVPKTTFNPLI
Briefly: affinity purification with mass spectrometry.

Amino acid sequences for entries named in this document (tags omitted).
UniProt F5HF68: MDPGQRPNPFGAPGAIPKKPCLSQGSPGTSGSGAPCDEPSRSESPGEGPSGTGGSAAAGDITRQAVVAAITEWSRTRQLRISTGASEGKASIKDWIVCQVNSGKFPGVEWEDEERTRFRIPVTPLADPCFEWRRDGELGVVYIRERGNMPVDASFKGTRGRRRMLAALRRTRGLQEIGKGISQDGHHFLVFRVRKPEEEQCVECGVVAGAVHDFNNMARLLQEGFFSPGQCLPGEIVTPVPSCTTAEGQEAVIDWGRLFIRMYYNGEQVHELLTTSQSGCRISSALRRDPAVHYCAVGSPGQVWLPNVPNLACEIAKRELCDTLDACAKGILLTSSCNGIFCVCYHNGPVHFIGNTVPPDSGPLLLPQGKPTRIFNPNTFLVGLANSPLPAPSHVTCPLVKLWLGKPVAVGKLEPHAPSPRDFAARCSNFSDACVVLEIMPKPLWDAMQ
UniProt P06733: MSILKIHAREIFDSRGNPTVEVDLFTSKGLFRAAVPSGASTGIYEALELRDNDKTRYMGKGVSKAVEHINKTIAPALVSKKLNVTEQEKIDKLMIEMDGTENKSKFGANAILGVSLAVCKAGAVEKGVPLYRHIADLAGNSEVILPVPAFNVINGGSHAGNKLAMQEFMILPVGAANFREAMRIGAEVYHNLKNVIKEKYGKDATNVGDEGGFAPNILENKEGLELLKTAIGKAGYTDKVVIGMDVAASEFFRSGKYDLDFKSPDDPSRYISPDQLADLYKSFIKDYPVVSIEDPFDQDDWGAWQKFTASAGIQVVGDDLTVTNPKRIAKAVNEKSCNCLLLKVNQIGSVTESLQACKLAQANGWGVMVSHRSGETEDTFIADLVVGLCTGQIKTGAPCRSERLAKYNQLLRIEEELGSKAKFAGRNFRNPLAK
UniProt Q2HR64: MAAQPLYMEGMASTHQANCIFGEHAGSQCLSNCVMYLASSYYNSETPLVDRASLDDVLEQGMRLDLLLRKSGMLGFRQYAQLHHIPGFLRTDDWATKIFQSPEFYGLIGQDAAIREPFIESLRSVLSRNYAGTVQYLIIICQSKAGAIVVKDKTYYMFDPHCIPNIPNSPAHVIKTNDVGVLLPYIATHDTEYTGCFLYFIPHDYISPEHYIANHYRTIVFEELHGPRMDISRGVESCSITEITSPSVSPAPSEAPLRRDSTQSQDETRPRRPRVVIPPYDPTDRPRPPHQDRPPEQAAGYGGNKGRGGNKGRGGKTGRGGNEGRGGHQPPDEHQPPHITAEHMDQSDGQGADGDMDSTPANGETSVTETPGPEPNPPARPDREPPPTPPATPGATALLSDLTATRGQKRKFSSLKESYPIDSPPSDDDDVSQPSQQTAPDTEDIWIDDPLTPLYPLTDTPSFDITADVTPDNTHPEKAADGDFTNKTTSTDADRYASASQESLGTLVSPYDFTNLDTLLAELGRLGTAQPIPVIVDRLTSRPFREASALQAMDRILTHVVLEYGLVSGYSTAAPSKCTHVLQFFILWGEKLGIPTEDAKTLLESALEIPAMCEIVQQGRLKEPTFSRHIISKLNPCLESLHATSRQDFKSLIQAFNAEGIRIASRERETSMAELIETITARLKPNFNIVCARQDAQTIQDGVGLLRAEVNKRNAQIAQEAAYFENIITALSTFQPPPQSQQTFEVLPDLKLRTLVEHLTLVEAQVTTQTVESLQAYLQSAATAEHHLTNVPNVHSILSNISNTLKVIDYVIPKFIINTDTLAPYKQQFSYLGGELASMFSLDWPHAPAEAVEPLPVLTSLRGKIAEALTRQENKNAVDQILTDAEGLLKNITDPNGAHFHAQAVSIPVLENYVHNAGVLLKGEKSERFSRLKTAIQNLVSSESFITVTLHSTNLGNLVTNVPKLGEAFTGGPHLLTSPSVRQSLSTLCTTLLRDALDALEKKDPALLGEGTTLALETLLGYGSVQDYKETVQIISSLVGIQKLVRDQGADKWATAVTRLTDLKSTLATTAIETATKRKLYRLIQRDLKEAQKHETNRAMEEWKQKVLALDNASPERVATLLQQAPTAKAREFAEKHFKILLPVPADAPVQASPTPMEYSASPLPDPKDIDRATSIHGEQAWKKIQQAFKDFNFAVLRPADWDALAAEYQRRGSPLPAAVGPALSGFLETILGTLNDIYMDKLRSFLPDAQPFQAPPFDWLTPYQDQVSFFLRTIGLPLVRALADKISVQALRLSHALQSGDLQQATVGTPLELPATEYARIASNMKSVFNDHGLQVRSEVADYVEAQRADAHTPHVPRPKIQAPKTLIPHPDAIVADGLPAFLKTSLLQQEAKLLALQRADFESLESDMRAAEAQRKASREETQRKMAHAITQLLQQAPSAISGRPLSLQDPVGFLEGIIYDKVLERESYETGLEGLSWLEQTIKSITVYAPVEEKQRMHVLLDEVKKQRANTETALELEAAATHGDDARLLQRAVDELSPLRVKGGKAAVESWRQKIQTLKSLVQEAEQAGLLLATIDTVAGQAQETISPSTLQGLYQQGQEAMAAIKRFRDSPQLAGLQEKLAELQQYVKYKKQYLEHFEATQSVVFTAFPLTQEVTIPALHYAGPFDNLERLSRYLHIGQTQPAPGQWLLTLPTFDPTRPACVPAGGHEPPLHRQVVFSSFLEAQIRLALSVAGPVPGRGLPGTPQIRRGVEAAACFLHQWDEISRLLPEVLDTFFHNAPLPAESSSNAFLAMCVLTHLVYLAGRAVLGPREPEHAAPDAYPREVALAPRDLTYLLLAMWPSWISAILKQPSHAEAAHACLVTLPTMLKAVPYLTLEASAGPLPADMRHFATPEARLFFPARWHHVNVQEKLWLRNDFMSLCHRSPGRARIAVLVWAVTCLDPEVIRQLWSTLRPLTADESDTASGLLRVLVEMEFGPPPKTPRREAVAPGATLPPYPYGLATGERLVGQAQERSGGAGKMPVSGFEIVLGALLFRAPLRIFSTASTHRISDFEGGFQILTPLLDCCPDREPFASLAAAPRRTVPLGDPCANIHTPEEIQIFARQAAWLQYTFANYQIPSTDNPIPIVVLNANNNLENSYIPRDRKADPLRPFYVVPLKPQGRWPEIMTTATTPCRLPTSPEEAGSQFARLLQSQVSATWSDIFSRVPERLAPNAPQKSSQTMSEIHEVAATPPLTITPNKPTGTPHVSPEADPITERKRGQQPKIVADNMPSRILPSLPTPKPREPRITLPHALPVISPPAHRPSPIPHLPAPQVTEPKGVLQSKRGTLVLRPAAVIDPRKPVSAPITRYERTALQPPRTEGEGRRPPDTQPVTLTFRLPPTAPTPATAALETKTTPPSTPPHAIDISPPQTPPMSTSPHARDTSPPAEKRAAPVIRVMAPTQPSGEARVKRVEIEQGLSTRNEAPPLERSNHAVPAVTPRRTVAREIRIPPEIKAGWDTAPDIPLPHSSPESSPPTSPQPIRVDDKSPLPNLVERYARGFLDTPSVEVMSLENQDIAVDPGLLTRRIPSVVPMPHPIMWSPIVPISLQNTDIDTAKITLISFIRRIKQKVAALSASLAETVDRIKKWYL
UniProt P17844: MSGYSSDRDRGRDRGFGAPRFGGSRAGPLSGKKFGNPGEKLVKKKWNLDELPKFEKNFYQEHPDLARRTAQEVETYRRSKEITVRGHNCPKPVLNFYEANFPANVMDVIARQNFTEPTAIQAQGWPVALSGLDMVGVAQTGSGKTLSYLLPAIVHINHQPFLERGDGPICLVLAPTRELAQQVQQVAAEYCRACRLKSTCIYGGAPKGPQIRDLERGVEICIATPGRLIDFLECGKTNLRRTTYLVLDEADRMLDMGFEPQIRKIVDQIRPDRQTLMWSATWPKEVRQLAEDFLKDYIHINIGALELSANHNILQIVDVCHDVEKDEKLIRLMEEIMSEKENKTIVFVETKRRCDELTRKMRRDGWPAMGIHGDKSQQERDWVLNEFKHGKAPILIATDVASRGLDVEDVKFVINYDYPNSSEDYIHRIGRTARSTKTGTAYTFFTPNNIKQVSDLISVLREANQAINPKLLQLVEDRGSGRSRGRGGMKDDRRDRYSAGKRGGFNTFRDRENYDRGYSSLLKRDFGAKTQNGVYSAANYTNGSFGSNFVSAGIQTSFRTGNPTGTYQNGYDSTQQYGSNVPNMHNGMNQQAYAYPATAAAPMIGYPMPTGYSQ
UniProt Q0QEN7: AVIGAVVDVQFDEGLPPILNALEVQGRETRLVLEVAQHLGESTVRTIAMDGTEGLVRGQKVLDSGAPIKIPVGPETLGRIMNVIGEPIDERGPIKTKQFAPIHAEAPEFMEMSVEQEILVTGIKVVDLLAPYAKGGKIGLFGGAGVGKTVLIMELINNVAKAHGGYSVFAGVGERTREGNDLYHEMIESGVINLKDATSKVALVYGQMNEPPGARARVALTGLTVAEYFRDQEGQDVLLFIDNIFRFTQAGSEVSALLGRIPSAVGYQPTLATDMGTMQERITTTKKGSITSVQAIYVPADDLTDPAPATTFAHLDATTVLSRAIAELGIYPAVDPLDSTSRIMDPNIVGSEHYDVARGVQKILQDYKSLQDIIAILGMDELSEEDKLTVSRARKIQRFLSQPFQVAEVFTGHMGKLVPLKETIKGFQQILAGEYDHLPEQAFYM
UniProt V9HW65: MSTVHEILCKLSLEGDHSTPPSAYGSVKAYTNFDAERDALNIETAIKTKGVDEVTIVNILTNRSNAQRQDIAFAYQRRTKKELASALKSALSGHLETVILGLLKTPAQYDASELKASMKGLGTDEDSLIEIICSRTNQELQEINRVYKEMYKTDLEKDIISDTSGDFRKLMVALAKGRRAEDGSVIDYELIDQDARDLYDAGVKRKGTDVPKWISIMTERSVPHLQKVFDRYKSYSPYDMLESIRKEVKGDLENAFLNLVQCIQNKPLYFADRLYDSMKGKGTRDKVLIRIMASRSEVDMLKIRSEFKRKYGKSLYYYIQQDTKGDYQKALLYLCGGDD
UniProt P05387: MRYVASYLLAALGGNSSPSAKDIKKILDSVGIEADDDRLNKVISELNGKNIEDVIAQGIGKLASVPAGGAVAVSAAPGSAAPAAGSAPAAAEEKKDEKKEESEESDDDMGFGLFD
UniProt Q00341: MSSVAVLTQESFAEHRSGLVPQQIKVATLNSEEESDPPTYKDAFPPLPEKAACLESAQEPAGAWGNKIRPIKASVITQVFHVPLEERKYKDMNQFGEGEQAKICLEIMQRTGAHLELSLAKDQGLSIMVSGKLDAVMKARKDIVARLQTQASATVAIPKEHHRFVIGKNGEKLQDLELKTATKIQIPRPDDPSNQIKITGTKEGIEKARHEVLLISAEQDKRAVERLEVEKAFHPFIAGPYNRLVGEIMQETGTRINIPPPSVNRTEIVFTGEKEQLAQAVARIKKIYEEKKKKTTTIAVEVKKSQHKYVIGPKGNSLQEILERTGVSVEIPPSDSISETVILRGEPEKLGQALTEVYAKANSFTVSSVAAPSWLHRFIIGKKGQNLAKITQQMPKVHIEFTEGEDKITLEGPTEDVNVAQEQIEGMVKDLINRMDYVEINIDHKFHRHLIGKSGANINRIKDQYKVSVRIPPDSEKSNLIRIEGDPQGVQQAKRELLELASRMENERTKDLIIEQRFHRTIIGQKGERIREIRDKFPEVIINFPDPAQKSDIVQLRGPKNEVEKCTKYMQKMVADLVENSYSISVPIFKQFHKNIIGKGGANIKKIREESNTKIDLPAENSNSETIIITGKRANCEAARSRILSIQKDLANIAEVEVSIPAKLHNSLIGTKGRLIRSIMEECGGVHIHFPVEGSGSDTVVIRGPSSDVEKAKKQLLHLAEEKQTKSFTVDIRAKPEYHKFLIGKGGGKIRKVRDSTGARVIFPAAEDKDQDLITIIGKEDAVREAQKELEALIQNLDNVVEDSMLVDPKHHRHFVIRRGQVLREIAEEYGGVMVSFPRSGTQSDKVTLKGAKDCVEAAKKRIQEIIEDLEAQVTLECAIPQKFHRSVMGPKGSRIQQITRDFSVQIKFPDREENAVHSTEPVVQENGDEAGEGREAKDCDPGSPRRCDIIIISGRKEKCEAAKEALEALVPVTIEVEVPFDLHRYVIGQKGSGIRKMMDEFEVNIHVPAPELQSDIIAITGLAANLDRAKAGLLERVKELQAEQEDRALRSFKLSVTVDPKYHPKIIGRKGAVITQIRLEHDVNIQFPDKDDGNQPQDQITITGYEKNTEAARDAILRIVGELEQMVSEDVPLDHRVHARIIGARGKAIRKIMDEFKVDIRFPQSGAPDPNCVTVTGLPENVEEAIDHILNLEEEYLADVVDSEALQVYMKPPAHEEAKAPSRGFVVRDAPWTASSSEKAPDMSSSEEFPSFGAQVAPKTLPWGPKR
UniProt Q07955: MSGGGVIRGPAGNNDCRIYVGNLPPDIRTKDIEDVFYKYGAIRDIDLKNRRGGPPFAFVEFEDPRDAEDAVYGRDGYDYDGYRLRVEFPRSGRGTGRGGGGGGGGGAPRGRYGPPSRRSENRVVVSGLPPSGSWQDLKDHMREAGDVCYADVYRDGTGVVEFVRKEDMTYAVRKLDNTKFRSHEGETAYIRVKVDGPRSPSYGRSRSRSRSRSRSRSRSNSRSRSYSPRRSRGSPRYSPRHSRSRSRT

Results are given in words; binding and its absence hold for the method and conditions named. Binding seen in cells or lysates may run through a third protein. Here binding means that the protein was enriched with, or labelled near, the bait; the list need not be complete. For some of these results: Tags and fused reporters may be left off the sequences shown.

On to “Isoform C1 of Heterogeneous nuclear ribonucleoproteins C1/C2 (from UniProt P07910-2 1-293)”, for which the binding entry in experiment [1] is given as “binds”. Still for that read-out and setting: next, “C-1-tetrahydrofolate synthase, cytoplasmic (from UniProt P11586 1-935)”: “binds”. vIRF1 (from UniProt F5HF68 1-449): in experiment [1], the binding result is on record as “binds”. On the same count and under the same terms, next, “Staphylococcal nuclease domain-containing protein 1 (from UniProt Q7KZF4 1-910)”: “binds”. Still for that read-out and setting: the result for “Regulator of chromosome condensation 2, isoform CRA_a (from UniProt Q9P258 1-522)” reads “binds”. With “Protein arginine N-methyltransferase 5 (from UniProt O14744 1-637)”, the binding result in experiment [1] and in experiment [2] was “binds” throughout. “NUMA1 variant protein (Fragment) (from UniProt Q4LE64)”: the binding entry in experiment [1] is recorded as “binds”. Same read-out and setting: next, “Glyceraldehyde-3-phosphate dehydrogenase (GAPDH) (from UniProt P04406 1-335)”: “binds”; “Guanine nucleotide-binding protein G(i) subunit alpha-2 (from UniProt P04899 1-355)”: “binds”. The same measure, in the same setting: the result for “Isoform 2 of tRNA (cytosine(34)-C(5))-methyltransferase (from UniProt Q08J23-2 1-732)” reads “binds”; that for “Alpha-enolase (from UniProt P06733 1-434)”, “binds”; that for “Poly (ADP-ribose) polymerase 1 (from UniProt P09874 1-1014)”, “binds”.

In the case of ORF64 (from UniProt Q2HR64 1-2635), the binding entry in experiment [1] is “binds”. For “Probable ATP-dependent RNA helicase DDX5 (from UniProt P17844 1-614)”, the binding entry in experiment [1] is on record as “binds”.

As for “Inosine-5'-monophosphate dehydrogenase 2 (from UniProt P12268 1-514)”, the binding entry in experiment [1] is “binds”.

Regarding “Isoform 3 of Core histome macro-H2A.1 (from UniProt O75367-3 1-371)”, the binding entry in experiment [1] is on record as “binds”.

Consider “X-ray repair cross-complementing protein 5 (from UniProt P13010 1-732)”, for which the binding entry in experiment [1] is reported as “binds”. Still for that read-out and setting: the result for “Epididymis secretory protein Li 85 (from UniProt Q15365 1-356)” reads “binds”.

Turning to “ATP synthase subunit beta (fragment) (from UniProt Q0QEN7 1-445)”, the binding result in experiment [1] is “binds”. On the same count and under the same terms, the result for “HEAT repeat containing 1 (from UniProt Q9H583 1-2144)” reads “binds”. On to Lamin-B1 (from UniProt P20700 1-586), for which the binding result in experiment [1] was “binds”. On the same count and under the same terms, next, Annexin (from UniProt V9HW65 1-339): “binds”; “Isoform 2 of Dedicator of cytokinesis protein 7 (from UniProt Q96N67-2 1-2129)”: “binds”; “Ubiquitin-activating enzyme E1 (A1S9T and BN75 temperature sensitivity complementing), isoform CRA_a (from UniProt P22314 1-1058)”: “binds”. Regarding “60S ribosomal protein P2 (from UniProt P05387 1-115)”, in experiment [1], the binding entry is “binds”. Still for that read-out and setting: next, “PC4 and SFRS1-interacting protein (from UniProt O75475 1-530)”: “binds”. The same measure, in the same setting: next, “Isoform 3 of Bcl-2 associated transcription factor 1 (from UniProt Q9NYF8-3 1-869)”: “binds”; “Isoform 2 of ATP-binding cassette sub-family F member 1 (from UniProt Q8NE71-2 1-807)”: “binds”. The same measure, in the same setting: the result for “Epididymis luminal protein 102 (from UniProt Q01082 1-2364)” reads “binds”; that for “High density lipoprotein binding protein (Vigilin), isoform CRA_a (from UniProt Q00341 1-1268)”, “binds”; that for “Serine/arginine-rich splicing factor 1 (from UniProt Q07955 1-248)”, “binds”. Take “FACT complex subunit SPT16 (from UniProt Q9Y5B9 1-1047)”: the binding entry in experiment [1] was “binds”.

In the case of “Probable ATP-dependent RNA helicase DDX17 (from UniProt Q92841 1-729)”, the binding result in experiment [1] was “binds”. As to “Isoform 3 of Double-stranded RNA-binding protein Staufen homolog 1 (from UniProt O95793-3 1-502)”, the binding entry in experiment [1] was “binds”. Same read-out and setting: the result for “Isoform 3 of Exportin-2 (from UniProt P55060-3 1-945)” reads “binds”; that for “KSHV mRNA transcript accumulation protein, ORF57 (from UniProt Q2HR75 1-455)”, “binds”; that for “X-ray repair complementing defective repair in chinese hamster cells 6 (Ku autoantigen) isoform CRA_a (from UniProt P12956 1-609)”, “binds”. The same measure, in the same setting: the result for RuvB-like 1 (from UniProt Q9Y265 1-456) reads “binds”; that for ORF8 (from UniProt F5HB81 27-845), “binds”. For “Nucleolar protein 56 (from UniProt O00567 1-594)”, in experiment [1], the binding entry is reported as “binds”.

Regarding “Heat shock protein HSP90-beta (from UniProt P08238 1-724)”, the binding result in experiment [1] is listed as “binds”. Same read-out and setting: the result for “Protein RRP5 homolog (from UniProt Q14690 1-1871)” reads “binds”.
